Test system: human Mo/MØs
Conditions: AS PEU specimens, Mo/MØs in presence of DSP 0.024 and 240 μg/ml, versus Mo/MØs in standard media

Compound: C[C@@H]1C[C@H]2[C@@H]3CCC4=CC(=O)C=C[C@]4(C)[C@@]3(F)[C@@H](O)C[C@]2(C)[C@@]1(O)C(=O)COP(=O)(O)O [DSP, dexamethasone sodium phosphate]
- hydroperoxide concentration in polymer specimens: significantly lower hydroperoxide concentrations

— patent US20020138123A1, “Medical electrical leads and indwelling catheters with enhanced biocompatibility and biostability” (Medtronic, Inc., priority 1998, published 2002)
